# Measured values reported in PubChem BioAssay AID588590 (National Center for Advancing Translational Sciences (NCATS), 2011).
# Amino acid sequences for entries named in this document (tags omitted). A change or cut given only in a name is not applied to a line headed by its entry.
# UniProt Q9UNA4: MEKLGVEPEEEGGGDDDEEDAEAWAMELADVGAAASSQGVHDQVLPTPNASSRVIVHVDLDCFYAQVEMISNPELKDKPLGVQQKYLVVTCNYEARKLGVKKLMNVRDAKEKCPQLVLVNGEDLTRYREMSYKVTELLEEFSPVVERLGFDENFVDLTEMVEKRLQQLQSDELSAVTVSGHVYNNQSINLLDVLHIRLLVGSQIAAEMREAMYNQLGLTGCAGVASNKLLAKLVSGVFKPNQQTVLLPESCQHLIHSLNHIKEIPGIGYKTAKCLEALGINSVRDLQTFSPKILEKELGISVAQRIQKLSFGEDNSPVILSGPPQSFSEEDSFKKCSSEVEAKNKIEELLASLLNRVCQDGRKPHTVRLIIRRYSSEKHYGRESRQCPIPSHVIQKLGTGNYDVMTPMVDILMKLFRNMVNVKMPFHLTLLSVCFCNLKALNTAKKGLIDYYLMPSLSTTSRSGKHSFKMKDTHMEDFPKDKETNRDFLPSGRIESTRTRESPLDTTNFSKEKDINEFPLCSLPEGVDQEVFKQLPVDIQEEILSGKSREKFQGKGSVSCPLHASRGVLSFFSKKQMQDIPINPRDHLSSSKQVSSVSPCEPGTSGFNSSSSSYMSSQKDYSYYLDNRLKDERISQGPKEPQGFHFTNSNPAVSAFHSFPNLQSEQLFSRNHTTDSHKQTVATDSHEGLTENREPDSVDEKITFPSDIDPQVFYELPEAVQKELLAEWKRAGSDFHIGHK
# Values joined by “and” are separate entries in the source; they are usually repeats but may differ in a detail not shown here. Equal values may be shown once. The whole screen tested about 390,000 compounds, of which about 4,000 (1%) were called active. The shares of active, inactive and inconclusive entries below differ from those in the screen. Calls come from the whole dose curve; as a rule, active = well fitted inhibition curve with a large enough effect; inconclusive = small, poorly fitted or top-dose-only effect, or another doubt; inactive = no such curve, though single readings can be large or run the other way. Potencies of inconclusive entries are doubtful fits and often do not repeat.
# Molecular target: DNA polymerase iota (Homo sapiens) (UniProt Q9UNA4)
# Assay: qHTS for Inhibitors of Polymerase Iota
# Settings: Pol iota fluorescent replication assay, 10 min; series mostly up to 115 µM
# Procedure, shortened: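 Fluorescent replication assay read twice, at 0 min and 10 min after adding 50 nM (final) substrate. Enzyme (10 nM) and compounds were first incubated 15 min at room temperature; enzyme-free buffer wells were negative controls.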
# Potency is the fitted concentration of half-maximal effect.
row,SMILES,Potency
1,O=c1c2ccccc2nc(/C=C/c2ccco2)n1-c1ccccc1O,active: 44.7 µM
2,COc1ccc(NS(=O)(=O)c2ccc3c(c2)oc(=O)n3C)cc1Cl,"inconclusive: 100 µM [inhibitor, partial curve, poor fit]"
3,COc1cc(/C=C/c2nc3ccccc3c(=O)n2-c2cccc(O)c2)ccc1O,active: 17.8 µM
4,CC(C)Nc1ccc(Nc2ccccc2)cc1,"inconclusive: 39.8 µM [inhibitor, partial curve, poor fit]"
5,CCNC(=O)O/N=C(\C)c1sc(-c2ccc(Cl)cc2)nc1C,"inconclusive: 28.2 µM [inhibitor, single point]"
6,O=C(O)c1c(C(=O)O)c(-c2ccc(Br)cc2)n2c1CSC2,"inconclusive: 25.1 µM [inhibitor, single point]"
7,COc1cccc(N2C(=O)CC(=O)NC2=O)c1,"inconclusive: 12.6 µM [inhibitor, partial curve, poor fit]"
8,CCOC(=O)c1c(-n2c(C)cc(C=C3C(=O)NC(=S)NC3=O)c2C)sc2c1CCCC2,"inconclusive: 11.2 µM [inhibitor, full curve, poor fit]"
9,CCOC(=O)C1CCN(/C=C2/C(=O)NC(=S)N(c3cccc(OC)c3)C2=O)CC1,inactive
10,O=c1cc(-c2ccc(O)cc2)oc2c(C3O[C@H](CO)[C@@H](O)[C@H](O)[C@H]3O)c(O)cc(O)c12 (stereo not given in full),"inconclusive: 79.4 µM [inhibitor, partial curve, poor fit]"
11,O=C(c1ccc2nc(-c3ccco3)c(-c3ccco3)nc2c1)N1CCC2(CC1)OCCO2,"inconclusive: 22.4 µM [inhibitor, full curve, poor fit]"
12,COc1cccc(N2C(=O)/C(=C/c3ccc(C)o3)C(=O)NC2=S)c1,"inconclusive: 3.16 µM [inhibitor, partial curve, poor fit]"
13,Cc1cccc(-n2c(O)c(/C=C/C=Nc3ccccc3)c(=O)[nH]c2=O)c1,inactive
14,Oc1cc(Cl)c(Cl)c(Cl)c1Cl,"inconclusive: 50.1 µM [inhibitor, partial curve, poor fit]"
15,O=C1NC(=O)N(Cc2ccc(F)cc2)C(=O)/C1=C\c1ccoc1,active: 14.1 µM
16,C[n+]1c2cc(N)ccc2cc2ccc(N)cc21,active: 3.16 µM and active: 7.94 µM
17,CCOc1ccc(CN(CCc2ccc3c(c2)OCO3)Cc2cc(OC)ccc2O)cc1,inactive
18,Cc1nc2ccc(Nc3nc4cc(S(=O)(=O)N5CCOCC5)ccc4o3)cc2s1,"inconclusive: 3.16 µM [inhibitor, single point]"
19,CCCCCCC(N)CC(=O)O (stereo not given),inactive
20,Cc1ccc(Cl)cc1Nc1nn2c(=O)c3ccc(C(=O)NCc4cccs4)cc3nc2s1,"inconclusive: 25.1 µM [inhibitor, partial curve, poor fit]"
21,O=[N+]([O-])c1ccc2c(c1)Cc1cc(O)ccc1-2,"inconclusive: 8.91 µM [inhibitor, full curve]"
22,NNCc1ccccc1,"inconclusive: 39.8 µM [inhibitor, partial curve, poor fit]"

row,SMILES,Potency
2,COc1ccc(N2C(=O)/C(=C/c3ccco3)C(=O)NC2=S)cc1,active: 4.47 µM
3,COc1ccc(NC(=O)CN(C)C(=O)CSC(c2ccccc2)c2ccccc2)cc1,"inconclusive: 79.4 µM [inhibitor, partial curve, poor fit]"
4,Cc1cc(C)cc(N2C(=O)NC(=O)/C(=C\c3cccn3-c3ccccc3)C2=O)c1,"inconclusive: 44.7 µM [inhibitor, partial curve, poor fit]"
5,O=C(c1ccco1)N1CCN(C(=O)c2ccc(COc3ccc(Cl)cc3Cl)o2)CC1,"inconclusive: 20 µM [inhibitor, full curve]"
6,Cn1c(=O)oc2cc(S(=O)(=O)N3CCC(C(=O)N4CCN(c5ccc(F)cc5)CC4)CC3)ccc21,"inconclusive: 28.2 µM [inhibitor, full curve, poor fit]"
7,C[N+]1(C)CCOC(O)(c2ccc(-c3ccc(C4(O)C[N+](C)(C)CCO4)cc3)cc2)C1 (stereo not given),"inconclusive: 79.4 µM [inhibitor, partial curve, poor fit]"
8,CN1CC(C(=O)c2ccc(Cl)cc2)C(c2ccccc2)C1 (stereo not given),"inconclusive: 50.1 µM [inhibitor, partial curve, poor fit]"
9,Cc1ccc(N2C(=O)NC(=O)/C(=C/c3ccc(-c4ccc(C(=O)O)c(Cl)c4)o3)C2=O)cc1,active: 20 µM
10,O=C1c2ccccc2C(=O)N1SC1CCCCC1,"inconclusive: 22.4 µM [inhibitor, partial curve, poor fit]"
11,CCOc1ccc(C=C2C(=O)NC(=S)NC2=O)cc1OCC,"inconclusive: 28.2 µM [inhibitor, single point]"
12,CSc1ncc(/C=C2/C(=O)NC(=O)N(C3CCCCC3)C2=O)cn1,"inconclusive: 11.2 µM [inhibitor, partial curve, poor fit]"
13,COc1cc(C=C(C#N)C#N)cc(O)c1O,"inconclusive: 25.1 µM [inhibitor, partial curve]"
14,Cc1ccc(C)c(NS(=O)(=O)c2ccc(OCC(=O)NCc3cccnc3)cc2)c1,inactive
15,Cn1cccc1/C=C1\C(=O)NC(=O)N(CCC2=CCCCC2)C1=O,"inconclusive: 25.1 µM [inhibitor, single point]"
16,COc1cc([C@@H]2c3cc4c(cc3[C@H](OC(C)=O)[C@H]3COC(=O)[C@H]23)OCO4)cc(OC)c1OC,inactive
17,CC(C)CC(=O)Nc1ccc(C(=O)Cn2c(=O)oc3ccccc32)cc1,"inconclusive: 100 µM [inhibitor, single point]"
18,O=C1NC(=O)C(=Cc2ccc(Sc3ccccc3)o2)C(=O)N1,"inconclusive: 15.8 µM [inhibitor, partial curve, poor fit]"
19,Cc1cccc(N2C(=O)NC(=O)/C(=C/c3ccc([N+](=O)[O-])o3)C2=O)c1,active: 3.16 µM
20,O=c1[nH]c(=O)n(-c2ccccc2F)c(O)c1/C=C1\C=Nc2ccccc21,"inconclusive: 15.8 µM [inhibitor, partial curve, poor fit]"
21,CN(C)c1ccc(C=C(C#N)C#N)cc1,inactive
22,CCCCn1c(O)c(C=NCCCn2ccnc2)c(=O)[nH]c1=O,inactive

row,SMILES,Potency
1,O=c1c2cc(Cl)cc(Cl)c2nc(CN2CCOCC2)n1-c1ccccc1F,"inconclusive: 39.8 µM [inhibitor, partial curve, poor fit]"
2,COc1cccc(NC(=O)c2ccc3c(=O)n4nc(Nc5ccccc5OC)sc4nc3c2)c1,"inconclusive: 89.1 µM [inhibitor, single point]"
3,CN1C(=O)C(=Cc2cccnc2)C(=O)N(C)C1=O,"inconclusive: 17.8 µM [inhibitor, partial curve]"
4,C[N+]1(C)[C@@H]2CC[C@H]1CC(OC(=O)[C@@H](CO)c1ccccc1)C2 (stereo not given in full),"inconclusive: 25.1 µM [inhibitor, single point]"
5,CCOc1ccc(NC(=O)C2C(C(=O)O)C3(Cl)C(Cl)=C(Cl)C2(Cl)C3(Cl)Cl)cc1 (stereo not given),inactive
6,O=C1NC(=O)C(=Cc2ccc(-c3ccccc3[N+](=O)[O-])o2)C(=O)N1,"inconclusive: 22.4 µM [inhibitor, full curve, poor fit]"
7,Cc1cc(/C=C2\C(=O)NC(=O)N(C)C2=O)c(C)n1-c1ccc2c(c1)OCO2,"inconclusive: 20 µM [inhibitor, full curve, poor fit]"
8,Cc1cccc(Cn2cccc(C(=O)Nc3cc(C)on3)c2=O)c1,"inconclusive: 15.8 µM [inhibitor, partial curve, poor fit]"
9,COc1cc(CC2(CCc3ccncc3)C(=O)NC(=O)NC2=O)cc(OC)c1OC,"inconclusive: 17.8 µM [inhibitor, single point]"
10,COc1cc(C2c3cc4c(cc3CC3COC(=O)C32)OCO4)cc(OC)c1O (stereo not given),"inconclusive: 35.5 µM [inhibitor, partial curve, poor fit]"
11,COc1cc(N2CCOCC2)ccc1C=C1C(=O)NC(=O)NC1=O,"inconclusive: 89.1 µM [inhibitor, single point]"
12,O=C1NC(=O)C(=Cc2ccc(-c3ccc(Cl)cc3)o2)C(=O)N1,active: 11.2 µM
13,COC(=O)C1=C(c2cccc(C#N)c2)C[C@@H]2CC[C@H]1N2C(=O)NCCCOC(C)C,inactive
14,O=C1NC(=O)C(=Cc2ccc(N3CCN(C(=O)c4ccccc4)CC3)c([N+](=O)[O-])c2)C(=O)N1,inactive
15,Cc1ccc(OCC(=O)N/N=C\c2ccc(O)c([N+](=O)[O-])c2)c([N+](=O)[O-])c1,"inconclusive: 89.1 µM [inhibitor, single point]"
16,COc1cc(Cn2c(N)c(C(=O)NCc3ccco3)c3nc4ccccc4nc32)cc(OC)c1OC,"inconclusive: 15.8 µM [inhibitor, partial curve, poor fit]"
17,CC(=O)Nc1ccc(OC(=O)N2CCN(/[N+]([O-])=N/Oc3ccc([N+](=O)[O-])cc3[N+](=O)[O-])CC2)cc1,"inconclusive: 22.4 µM [inhibitor, partial curve]"
18,COc1ccc(Cn2c(N)c(C(=O)NCc3ccco3)c3nc4ccccc4nc32)cc1,"inconclusive: 10 µM [inhibitor, full curve, poor fit]"
19,c1cc(OCCN2CC2)ccn1,inactive
20,Nc1cccc2c(O)cccc12,inactive
21,Cc1oc(/N=C/c2ccc3c(c2)OCO3)c(C#N)c1C,"inconclusive: 17.8 µM [inhibitor, single point]"
